# Results from one PubChem assay

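Luminescence from an EWS-FLI1 target-promoter (NR0B1) reporter, set against a CMV-promoter reporter, two days after silencing single genes in TC32 Ewing sarcoma cells. Each siRNA was applied at 20 nM. A z-score of the log NR0B1-over-CMV signal, less the median of siRNAs with the same seed; more negative means a stronger specific loss of the NR0B1 reporter.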

The strongest results of the screen are mostly left out here. Sequences are the guide (antisense) strand, without overhang.

UCAACCACGAAUGAGACUU against ST6GALNAC6 read seed-corrected z-score 0.2644.
AUUUAUACUCAUGCAUUGC against PNPLA10P read seed-corrected z-score 0.4362.
UCUCUUUGUAAUACCGUCG against EFHC1 read seed-corrected z-score -1.638.
AAGGUAAUGAGCACAAAGC against SMO read seed-corrected z-score -0.9837.
UACACCUUCAGUCUUCAUC against NDUFB2 read seed-corrected z-score 0.7524.
UUUCUGAAGUGUGCGGUUC against AATF read seed-corrected z-score 0.5762.
AUACAUGCUACUGUCAAUC against IRF8 read seed-corrected z-score 0.7735.
UAGGUAGCAAAGAUGCCGG against AQP3 read seed-corrected z-score -1.147.
UAUGGUUAAGGCGGGUUGC against SLC16A7 read seed-corrected z-score -0.4323.
AGUCGUAUUAGAAAGCCUG against DCHS2 read seed-corrected z-score 0.02096.
AUAGGAGAUAAGGAGUUGG against OR5A1 read seed-corrected z-score -0.1403.
UAGCAGUGAACUCAGGAGC against RPSAP9 read seed-corrected z-score 0.8289.
AUAGCAGCACCAACGCACC against WNT9A read seed-corrected z-score 1.399.
AAGCCUAUAAGUGUCCUUC against LSM1 read seed-corrected z-score 1.6.
AGCGUAUUUGGUGAGGAGG against CTF1 read seed-corrected z-score -0.4155.
UUAAGUUCGGAAUACACCU against APOBEC3G read seed-corrected z-score 0.5647.
UGAAAUGCAGCCGUUGUUU against SNRPC read seed-corrected z-score 0.9768.
UCUCCUCACAGCGAAUCUC against ASTN2 read seed-corrected z-score -0.5156.
UGCUCUUUACUAAUUUUCC against UBP1 read seed-corrected z-score -1.685.
AUAGCAACUAUGGUAGCUG against PCDH15 read seed-corrected z-score 0.3056.
UCCGGUUGAACAUCCACUC against PCK1 read seed-corrected z-score -1.937.
UUGGACAUGAGGGUAUUUC against CYP2S1 read seed-corrected z-score -0.3522.
UGAUGUAAUAGUAGGCGGC against SNRNP200 read seed-corrected z-score -0.185.
ACACUUAGGAGCACCAUCG against FAM24A read seed-corrected z-score -0.949.
UAGCUUGUAGAAACCCUCG against DMWD read seed-corrected z-score 0.2299.
UCUAAAUUGACUCUCUUCC against SERTM1 read seed-corrected z-score 0.1534.
UUGGUUUCUGCGAAUGAAG against TSPYL1 read seed-corrected z-score -0.1843.
AGCAUUGCAAGUGACAACG against ECHDC3 read seed-corrected z-score -0.9862.
UCCCUCUUCUGCAUCGUCC against WASH6P read seed-corrected z-score 0.6055.
UGACUGCAUCUGUUCAAUC against KRT77 read seed-corrected z-score 0.8096.
UGAUAAAUUCUGUUGCUUC against FUNDC1 read seed-corrected z-score -0.3524.
UAAAGGAUGAGCGACAUCU against TMPRSS3 read seed-corrected z-score 0.0739.
UUCUCGAACAGGAUGUAGC against CYP27A1 read seed-corrected z-score 0.1263.
UUUCUUUCGGUCUGUUUUG against DBX2 read seed-corrected z-score 0.1463.
UCUGGAACCACCUUGUUAG against TGOLN2 read seed-corrected z-score 0.9667.
UAAGAACUGAGCAGUAGCC against ZBTB24 read seed-corrected z-score 0.02603.
UACAAACUGGGAGACAUGG against POM121L12 read seed-corrected z-score 0.0779.
UACUCUUUCCCUGGGUUGC against SPTBN2 read seed-corrected z-score -0.04599.
UAAAGGGUGAGUUGUGCGC against TYRP1 read seed-corrected z-score -0.484.
ACAGGGACAAAAGACAUCC against VN2R1P read seed-corrected z-score -1.949.

Some entries from above, unchanged:

siRNA	gene	seed-corrected z-score
UAAGAACUGAGCAGUAGCC	ZBTB24	0.02603
UACACCUUCAGUCUUCAUC	NDUFB2	0.7524

Source: PubChem BioAssay AID1159506 (NCATS, 2015).